Test results: publication doi:10.1101/2024.04.08.588543
Results are given in words; binding and its absence hold for the method and conditions named. Binding can be weak; no strength is given.

Target: NtGEF12a (Nicotiana tabacum (tobacco))
Assay: two-hybrid

NtRAC5 (from UniProt Q9S820) was tested, and the binding was “binds”.
